Reference: patent publication US20260034135A1, “USE OF N6-BENZYLAMINOPURINE AS AN APPETITE SUPPRESSANT” (THE GOVERNING COUNCIL OF THE UNIVERSITY OF TORONTO, priority 2022, published 2026)
For at least one compound, name, drawing or mass did not settle the structure.

System: mHypoE-46 cell line
Assay: Gene expression by qRT-PCR in mHypoE-46 hypothalamic cell line
Type: cell-based, mouse
Details: 50 μM palmitate, 16 hr
Experimental: Hypothalamic neurons from embryonic and adult mice were previously immortalized to generate the clonal cell lines mHypoE-46, mHypoE-44, mHypoE-41, mHypoE-38, mHypoA-59, a FAC-sorted POMC/GFP mouse-derived cell line, mHypoA-POMC/GFP-2, and a mixed culture mHypoA-Bmal1-WT/F cell line (6, 13, 14). The mHypoE-46, mHypoE-44, and mHypoA-Bmal1-WT/F lines were cultured in DMEM containing 1000 mg/L glucose supplemented with 5% FBS and 1% pen/strep. The mHypoE-41, mHypoE-38, and mHypoA-59 cell lines were cultured in DMEM containing 4500 mg/L glucose supplemented with 2% FBS and 1% pen/strep. The mHypoA-POMC/GFP-2 line was cultured in DMEM containing 1000 mg/L glucose supplemented with 2% FBS and 1% pen/strep. […] Neuropeptide gene expression levels were determined by qRT-PCR.
For cell culture experiments, total RNA was isolated using PureLink RNA isolation kit (Thermofisher Scientific, Burlington, ON, Canada) according to the manufacturer's instruction with on column DNase step (PureLink DNAse kit) or DNase I treatment to remove genomic DNA. […] RNA quality and quantity were measured using Nanodrop 2000 and 500-1000 ng of complimentary DNA (cDNA) was synthesized with High Capacity cDNA Reverse Transcription kit (Applied biosystems, Thermofisher Scientific). […] Data was analyzed using […] and normalized to reference gene, either 60S ribosomal protein L7 (Rpl7) or Histone 3a (His).

Question: With `CCCCCCCCCCCCCCCC(=O)O` [palmitate, reference compound] as the compound, how does the “Npy mRNA levels” value read?
Answer: The value was “nearly two-fold increase”.
